Reference: patent US20160046678A1 (ZYNGENIA, published 2016)
No constants are given. Whether binding was seen depends on the method and setting. Some results given as binding are weak or reduced against the parent protein; the word gives no strength.

Sequences of proteins named here, by UniProt entry; tags and fusion partners are left off. Residues count along the entry.
UniProt P08887, residues 20-358: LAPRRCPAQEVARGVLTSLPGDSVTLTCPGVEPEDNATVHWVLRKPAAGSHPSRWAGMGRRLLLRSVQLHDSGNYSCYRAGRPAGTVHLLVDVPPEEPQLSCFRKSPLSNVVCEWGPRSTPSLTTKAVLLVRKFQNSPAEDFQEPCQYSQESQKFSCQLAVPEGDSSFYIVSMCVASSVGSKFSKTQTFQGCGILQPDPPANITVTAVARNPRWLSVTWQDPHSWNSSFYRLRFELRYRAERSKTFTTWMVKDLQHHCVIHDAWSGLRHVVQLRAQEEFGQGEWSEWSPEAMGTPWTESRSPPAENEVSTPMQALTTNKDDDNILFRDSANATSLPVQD

B1: ILC194 (peptide)
peptide: SHEDWTCFPYLCRILSH
B2: ILC219 (peptide)
peptide: SDEEWTCFPTLCTDWLQ
B3: ILC193 (peptide)
peptide: SEEDWTCFPYLCRILLD
B4: ILC180 (peptide)
peptide: SEEEWTCFPYLCSYWLD
B5: ILC185 (peptide)
peptide: SEEDWTCFPYLCRILVE
B6: ILC182 (peptide)
peptide: SEEEWTCFPYLCTNWLH
B7: ILC213 (peptide)
peptide: SEEEWTCFPSLCTIWLQ
B8: ILC203 (peptide)
peptide: SHEEWTCFPYLCRILLD
B9: ILC228 (peptide)
peptide: SEEEWTCFPYLCSILVD
B10: ILC221 (peptide)
peptide: SEAEWTCFPYLCSDWLH
B11: ILC205 (peptide)
peptide: SEEEWTCFPYLCSFWLE
B12: ILC187 (peptide)
peptide: SHEDWTCFPYLCSILLQ
B13: ILC190 (peptide)
peptide: SDEEWTCFPYLCTFWLQ
B14: ILC209 (peptide)
peptide: SHEEWTCFPYLCKILLE
B15: ILC198 (peptide)
peptide: SEEEWTCFPSLCNFWSQ
B16: ILC204 (peptide)
peptide: SQEEWTCFPYLCTDWLH
B17: ILC201 (peptide)
peptide: SDEEWTCFPYLCSIWAQ
B18: ILC191 (peptide)
peptide: SEEEWTCFPYLCRNWLD
B19: ILC215 (peptide)
peptide: SEEEWTCFPYLCSLWVD
B20: ILC216 (peptide)
peptide: SHEEWTCFPYLCSVWAQ
B21: ILC231 (peptide)
peptide: SEEEWTCFPYLCTQLLH
B22: ILC234 (peptide)
peptide: SDEEWTCFPYLCSFWAQ
B23: ILC247 (peptide)
peptide: SEEEWTCFPYLCSEWAQ
B24: ILC222 (peptide)
peptide: SEEEWTCFPYLCGQWVE
B25: ILC212 (peptide)
peptide: SHEEWTCFPTLCTDWLQ
B26: ILC241 (peptide)
peptide: SQEEWTCFPYLCSDWLQ
B27: ILC229 (peptide)
peptide: SEEEWTCFPYLCSKLLH
B28: ILC202 (peptide)
peptide: SDEEWTCFPYLCSYWVD
B29: ILC189 (peptide)
peptide: SHEDWTCFPYLCRVLLE
B30: ILC240 (peptide)
peptide: SQEEWTCFPYLCSKWVD
B31: ILC230 (peptide)
peptide: SEEEWTCFPYLCGKWLQ
B32: ILC239 (peptide)
peptide: SEEEWTCFPYLCTNLVE
B33: ILC248 (peptide)
peptide: SEEEWTCFPYLCSQWLH
B34: ILC196 (peptide)
peptide: SEEEWTCFPYLCSDWLE
B35: ILC184 (peptide)
peptide: SDEEWTCFPSLCTQLLQ
B36: ILC207 (peptide)
peptide: SHEDWTCFPYLCNILLQ
B37: ILC238 (peptide)
peptide: SHEEWTCFPYLCTVWAE
B38: ILC226 (peptide)
peptide: SDEEWTCFPSLCSFWLD
B39: ILC199 (peptide)
peptide: SQEEWTCFPYLCTYWLQ
B40: ILC183 (peptide)
peptide: SHEDWTCFPYLCRILVE
B41: ILC195 (peptide)
peptide: SEEEWTCFPYLCTNWLD
B42: ILC197 (peptide)
peptide: SEEEWTCFPYLCTHWLH
B43: ILC214 (peptide)
peptide: SHEEWTCFPYLCSDWLQ
B44: ILC200 (peptide)
peptide: SHEEWTCFPYLCTYWSH
B45: ILC233 (peptide)
peptide: SQEEWTCFPSLCSDWVQ
B46: ILC210 (peptide)
peptide: SQEEWTCFPYLCSYWLQ
B47: ILC211 (peptide)
peptide: SEEEWTCFPYLCSIWLD
B48: ILC223 (peptide)
peptide: SDEEWTCFPSLCSFWLE
B49: ILC192 (peptide)
peptide: SEEEWTCFPYLCGLWVE
B50: ILC186 (peptide)
peptide: SHEEWTCFPYLCGKWAE
B51: ILC243 (peptide)
peptide: SDEEWTCVPSLCAKLADGQAGQAAAGGSHEEWTCFAYLCGLLAD
B52: ILC244 (peptide)
peptide: SHEEWTCFPYLCTYWLQ
B53: ILC224 (peptide)
peptide: SEEEWTCFPYLCTLWSQ
B54: ILC206 (peptide)
peptide: SHEDWTCFPYLCTLLLQ
B55: ILC220 (peptide)
peptide: SQEEWTCFPYLCSHWLD
B56: ILC227 (peptide)
peptide: SQEEWTCFPYLCTDWVQ
B57: ILC236 (peptide)
peptide: SEEEWTCFPYLCRELLE
B58: ILC242 (peptide)
peptide: SDEEWTCFPYLCSYWLQ
B59: ILC237 (peptide)
peptide: SEEEWTCFPSLCGVWAE
B60: ILC218 (peptide)
peptide: SHEEWTCFPYLCSLWAQ
B61: ILC208 (peptide)
peptide: SEEEWTCFPYLCSHWAE
B62: ILC232 (peptide)
peptide: SDEDWTCFPYLCRILLE
B63: ILC225 (peptide)
peptide: SDEEWTCFPTLCSLWSE
B64: ILC181 (peptide)
peptide: SEEEWTCFPYLCSQWLE

target: IL6R (UniProt P08887); assay: peptide selection, Example 48

binding, binds:
B1
B2
B3
B4
B5
B6
B7
B8
B9
B10
B11
B12
B13
B14
B15
B16
B17
B18
B19
B20
B21
B22
B23
B24
B25
B26
B27
B28
B29
B30
B31
B32
B33
B34
B35
B36
B37
B38
B39
B40
B41
B42
B43
B44
B45
B46
B47
B48
B49
B50
B51
B52
B53
B54
B55
B56
B57
B58
B59
B60
B61
B62
B63
B64
